Here are results for 1 sequence from article PMC6877725, “Identification of the periplasmic DNA receptor for natural transformation of Helicobacter pylori”.

Negatives hold for the conditions tested.

This series deals with MBP (UniProt P0AEX9). Nature of the series: EMSA. Particulars: EMSA: 10 mM Tris-HCl pH 7.5, 50 mM KCl, ~100 mM NaCl, 0.1 mM MgCl2, 1 mM DTT, 0.1 µg/µl BSA, on ice 30 min; recombinant protein; label: 5'-Cy5 on strand 1.

With “TAGCATCGATCAGTCCTC (double strand) [18 bp dsDNA (Cy5-PNK1 + cPNK1)]”, the binding result is “no binding”.
